Results reported in publication PMC10919877.
Results are given in words; binding and its absence hold for the method and conditions named. In cells and extracts the contact can be indirect. Some entries that bind do so weakly or less than the wild type. Sequences can lack the tags named with a protein.

Sequences of proteins named here, by UniProt entry; tags and fusion partners are left off. Residues count along the entry.
UniProt Q00960, residues 27-1482: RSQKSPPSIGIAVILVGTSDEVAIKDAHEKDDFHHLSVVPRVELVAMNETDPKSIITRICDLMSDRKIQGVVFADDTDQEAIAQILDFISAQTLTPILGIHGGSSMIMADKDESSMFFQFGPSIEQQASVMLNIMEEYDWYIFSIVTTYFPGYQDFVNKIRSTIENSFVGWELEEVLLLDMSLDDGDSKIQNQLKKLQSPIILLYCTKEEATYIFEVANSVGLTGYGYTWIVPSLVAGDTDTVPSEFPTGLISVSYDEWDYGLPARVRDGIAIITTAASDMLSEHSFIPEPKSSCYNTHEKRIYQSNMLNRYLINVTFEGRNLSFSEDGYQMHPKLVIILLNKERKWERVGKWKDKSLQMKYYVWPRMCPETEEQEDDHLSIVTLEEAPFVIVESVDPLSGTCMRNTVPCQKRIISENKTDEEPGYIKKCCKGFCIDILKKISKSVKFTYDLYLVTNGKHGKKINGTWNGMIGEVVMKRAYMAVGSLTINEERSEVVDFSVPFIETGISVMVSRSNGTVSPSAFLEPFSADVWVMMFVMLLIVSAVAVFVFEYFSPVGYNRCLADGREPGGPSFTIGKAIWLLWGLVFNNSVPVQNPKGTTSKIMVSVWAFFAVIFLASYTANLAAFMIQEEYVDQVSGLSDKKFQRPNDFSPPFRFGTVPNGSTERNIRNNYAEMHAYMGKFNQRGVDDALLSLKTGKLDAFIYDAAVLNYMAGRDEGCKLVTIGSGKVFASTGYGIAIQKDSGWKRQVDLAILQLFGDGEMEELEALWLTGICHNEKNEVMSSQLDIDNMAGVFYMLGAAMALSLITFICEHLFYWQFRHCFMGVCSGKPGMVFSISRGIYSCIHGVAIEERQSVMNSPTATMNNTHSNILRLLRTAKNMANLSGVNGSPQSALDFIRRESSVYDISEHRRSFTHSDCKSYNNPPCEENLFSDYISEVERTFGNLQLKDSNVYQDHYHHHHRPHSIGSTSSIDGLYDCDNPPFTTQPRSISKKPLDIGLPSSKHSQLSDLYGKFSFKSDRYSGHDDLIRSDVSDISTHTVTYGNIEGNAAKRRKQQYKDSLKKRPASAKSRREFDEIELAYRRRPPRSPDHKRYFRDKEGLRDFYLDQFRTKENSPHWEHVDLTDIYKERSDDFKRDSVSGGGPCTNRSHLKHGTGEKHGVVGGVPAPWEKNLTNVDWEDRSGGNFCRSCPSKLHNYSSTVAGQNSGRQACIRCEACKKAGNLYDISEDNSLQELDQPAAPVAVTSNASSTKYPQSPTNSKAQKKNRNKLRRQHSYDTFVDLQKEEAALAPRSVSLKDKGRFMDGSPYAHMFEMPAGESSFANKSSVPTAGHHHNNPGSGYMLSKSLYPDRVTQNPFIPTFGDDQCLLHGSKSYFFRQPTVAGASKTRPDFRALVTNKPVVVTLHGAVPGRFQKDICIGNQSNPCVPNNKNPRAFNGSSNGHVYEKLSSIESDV

Biological target: T1, FAM81A-FLAG (full-length mouse FAM81A with 3xFLAG) (mouse) (UniProt Q3UXZ6)
T1 sequence: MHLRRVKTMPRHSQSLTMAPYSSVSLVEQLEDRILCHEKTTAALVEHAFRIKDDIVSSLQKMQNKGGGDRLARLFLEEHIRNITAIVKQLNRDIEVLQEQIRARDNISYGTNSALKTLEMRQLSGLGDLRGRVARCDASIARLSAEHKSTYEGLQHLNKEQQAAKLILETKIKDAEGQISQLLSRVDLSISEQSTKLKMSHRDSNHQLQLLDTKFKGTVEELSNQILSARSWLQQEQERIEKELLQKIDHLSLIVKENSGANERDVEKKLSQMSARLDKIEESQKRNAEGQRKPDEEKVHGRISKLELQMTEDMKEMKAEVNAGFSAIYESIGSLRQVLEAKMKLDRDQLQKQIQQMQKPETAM
Experiment: co-IP; HEK293T cells co-transfected with FLAG-tagged FAM81A (or mutant) and a GFP-tagged partner, lysed 24 h later in 1% Triton X-100, 50 mM Tris-HCl pH 7.4, 150 mM NaCl, 1 mM EDTA; ANTI-FLAG M2 Affinity Gel, 90 min at 4°C; blots with anti-GFP and anti-FLAG

binding: binds
Substance: GFP-GluN2B (pCI-EGFP-NR2b wt) (from UniProt Q00960 27-1482) (receptor)
